Data: paper PMC5602324

Assays:
[1] = target: paclitaxel-stabilised microtubules (polymerised αβ-tubulin) (bovine); assay: cryo-EM structure; MKLP2-MD with 2 mM AMPPNP on paclitaxel-stabilised MTs (13-protofilament); BRB20/BRB80; both purified
[2] = target: α-tubulin (within the microtubule) (bovine); assay: as above
[3] = target: β-tubulin (within the microtubule) (bovine); assay: as above
[4] = target: paclitaxel-stabilised microtubules (polymerised αβ-tubulin) (bovine); assay: cryo-EM structure; MKLP2-MD with 2 mM ADP on GMPCPP, paclitaxel-stabilised MTs (14-protofilament); BRB20/BRB80; both purified
[5] = target: α-tubulin (within the microtubule) (bovine); assay: as above
[6] = target: β-tubulin (within the microtubule) (bovine); assay: as above
[7] = target: paclitaxel-stabilised microtubules (polymerised αβ-tubulin) (bovine); assay: cryo-EM structure; MKLP2-MD with 2 mM ADP + AlF4 (ADP.AlFx) on paclitaxel-stabilised MTs (13-protofilament); BRB20/BRB80; both purified
[8] = target: α-tubulin (within the microtubule) (bovine); assay: as above
[9] = target: β-tubulin (within the microtubule) (bovine); assay: as above
[10] = target: paclitaxel-stabilised microtubules (polymerised αβ-tubulin) (bovine); assay: cryo-EM structure; MKLP2-MD without nucleotide (apyrase 10 units/ml) on paclitaxel-stabilised MTs (13-protofilament); BRB20/BRB80; both purified
[11] = target: α-tubulin (within the microtubule) (bovine); assay: as above
[12] = target: β-tubulin (within the microtubule) (bovine); assay: as above

binding [1]: binds
binding [2]: binds
binding [3]: binds
binding [4]: binds
binding [5]: binds
binding [6]: binds
binding [7]: binds
binding [8]: binds
binding [9]: binds
binding [10]: binds
binding [11]: binds
binding [12]: binds
B1: MKLP2 motor domain, construct 25–520 (domain or fragment, UniProt P97329 25-520)
chain: ESTAADLRSVVRKDLLSDCSVISASLEDKQALLEDTSEKVKVYLRIRPFLTSELDRQEDQGCVCIENTETLVLQAPKDSFALKSNERGVGQATHKFTFSQIFGPEVGQVAFFNLTMKEMVKDVLKGQNWLIYTYGVTNSGKTYTIQGTSKDAGILPQSLALIFNSLQGQLHPTPDLKPLLSNEVIWLDSKQIRQEEMKKLSLLIGGLQEEELSTSVKKRVHTESRIGASNSFDSGVAGLSSTSQFTSSSQLDETSQLWAQPDTVPVSVPADIRFSVWISFFEIYNELLYDLLEPPSHQHKRQTLRLCEDQNGNPYVKDLNWIHVRDVEEAWKLLKVGRKNQSFASTHMNQQSSRSHSIFSIRILHLQGEGDIVPKISELSLCDLAGSERCKHQKSGERLKEAGNINTSLHTLGRCIAALRQNQQNRSKQNLIPFRDSKLTRVFQGFFTGRGRSCMIVNVNPCASTYDETLHAAKFSALASQLVHAPPVHLGIPSLH

No constants are given. Whether binding was seen depends on the method and setting. A result given as binding can be weak or reduced; the word gives no strength.
